# Source: PubChem BioAssay (NCATS)
# Protein sequences, listed by entry. Tags and fused reporters are not part of them. Lines headed by an entry give the natural chain unless they say otherwise; changes in a name come on top.
# UniProt P37231: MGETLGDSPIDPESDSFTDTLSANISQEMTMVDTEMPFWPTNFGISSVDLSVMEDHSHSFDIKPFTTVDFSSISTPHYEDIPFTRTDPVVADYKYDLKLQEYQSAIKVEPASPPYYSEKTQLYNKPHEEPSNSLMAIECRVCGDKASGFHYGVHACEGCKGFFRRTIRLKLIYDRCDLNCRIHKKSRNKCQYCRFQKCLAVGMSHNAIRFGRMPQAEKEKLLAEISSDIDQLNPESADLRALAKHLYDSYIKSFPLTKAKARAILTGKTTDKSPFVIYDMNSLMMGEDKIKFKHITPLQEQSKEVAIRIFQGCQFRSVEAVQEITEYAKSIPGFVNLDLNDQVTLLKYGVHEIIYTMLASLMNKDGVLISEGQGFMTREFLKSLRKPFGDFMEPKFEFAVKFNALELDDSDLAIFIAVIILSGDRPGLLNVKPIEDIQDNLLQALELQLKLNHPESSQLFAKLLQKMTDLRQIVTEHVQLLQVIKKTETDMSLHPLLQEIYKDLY
# UniProt P10828: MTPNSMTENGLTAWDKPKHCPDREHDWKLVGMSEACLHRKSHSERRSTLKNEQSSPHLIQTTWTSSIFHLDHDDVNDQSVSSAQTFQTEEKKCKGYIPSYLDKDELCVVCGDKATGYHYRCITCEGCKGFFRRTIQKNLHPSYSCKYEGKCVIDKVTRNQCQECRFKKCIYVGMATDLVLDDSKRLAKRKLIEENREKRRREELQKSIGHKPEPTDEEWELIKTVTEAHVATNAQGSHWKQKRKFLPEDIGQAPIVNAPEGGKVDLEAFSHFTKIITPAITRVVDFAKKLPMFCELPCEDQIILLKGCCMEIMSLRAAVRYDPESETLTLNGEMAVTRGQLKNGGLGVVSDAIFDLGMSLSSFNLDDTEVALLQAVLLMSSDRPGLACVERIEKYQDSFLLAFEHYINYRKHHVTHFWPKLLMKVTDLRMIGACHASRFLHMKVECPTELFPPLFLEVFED
# UniProt Q96RI1: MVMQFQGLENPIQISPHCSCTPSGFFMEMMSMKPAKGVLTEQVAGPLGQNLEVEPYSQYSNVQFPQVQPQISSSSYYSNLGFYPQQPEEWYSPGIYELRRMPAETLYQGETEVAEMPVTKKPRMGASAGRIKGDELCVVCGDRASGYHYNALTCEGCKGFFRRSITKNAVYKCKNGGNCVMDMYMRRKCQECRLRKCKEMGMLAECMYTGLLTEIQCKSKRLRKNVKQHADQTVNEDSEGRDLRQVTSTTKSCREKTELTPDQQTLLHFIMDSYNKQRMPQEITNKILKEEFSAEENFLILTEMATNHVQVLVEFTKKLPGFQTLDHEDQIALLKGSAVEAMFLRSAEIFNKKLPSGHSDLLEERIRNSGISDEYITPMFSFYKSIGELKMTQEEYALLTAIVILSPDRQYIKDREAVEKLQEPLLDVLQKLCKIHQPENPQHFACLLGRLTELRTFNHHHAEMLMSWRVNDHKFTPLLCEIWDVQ
# UniProt P11473: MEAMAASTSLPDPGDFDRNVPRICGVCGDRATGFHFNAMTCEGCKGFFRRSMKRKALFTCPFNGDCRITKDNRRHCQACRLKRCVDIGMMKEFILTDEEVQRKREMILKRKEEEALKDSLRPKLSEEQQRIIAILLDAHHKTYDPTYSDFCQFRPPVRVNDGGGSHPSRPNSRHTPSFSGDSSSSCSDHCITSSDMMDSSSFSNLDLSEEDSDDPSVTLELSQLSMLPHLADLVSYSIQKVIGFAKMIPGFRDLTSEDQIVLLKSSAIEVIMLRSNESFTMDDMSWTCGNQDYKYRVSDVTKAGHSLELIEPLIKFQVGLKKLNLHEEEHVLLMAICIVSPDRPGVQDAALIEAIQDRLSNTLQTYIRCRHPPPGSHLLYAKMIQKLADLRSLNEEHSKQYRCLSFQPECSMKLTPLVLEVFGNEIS
# UniProt P19793: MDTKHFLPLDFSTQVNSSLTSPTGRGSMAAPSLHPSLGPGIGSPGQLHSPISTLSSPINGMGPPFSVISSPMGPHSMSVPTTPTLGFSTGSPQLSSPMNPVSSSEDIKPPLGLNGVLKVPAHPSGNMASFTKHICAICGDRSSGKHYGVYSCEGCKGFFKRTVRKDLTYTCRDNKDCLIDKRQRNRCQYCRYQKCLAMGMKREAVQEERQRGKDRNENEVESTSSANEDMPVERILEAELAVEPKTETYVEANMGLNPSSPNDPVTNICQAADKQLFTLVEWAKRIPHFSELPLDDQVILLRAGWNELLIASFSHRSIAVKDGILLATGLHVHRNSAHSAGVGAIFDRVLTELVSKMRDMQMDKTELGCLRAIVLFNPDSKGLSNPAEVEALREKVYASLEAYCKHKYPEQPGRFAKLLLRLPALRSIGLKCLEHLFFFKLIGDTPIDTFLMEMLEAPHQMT
# UniProt P27695, whole entry, looked up: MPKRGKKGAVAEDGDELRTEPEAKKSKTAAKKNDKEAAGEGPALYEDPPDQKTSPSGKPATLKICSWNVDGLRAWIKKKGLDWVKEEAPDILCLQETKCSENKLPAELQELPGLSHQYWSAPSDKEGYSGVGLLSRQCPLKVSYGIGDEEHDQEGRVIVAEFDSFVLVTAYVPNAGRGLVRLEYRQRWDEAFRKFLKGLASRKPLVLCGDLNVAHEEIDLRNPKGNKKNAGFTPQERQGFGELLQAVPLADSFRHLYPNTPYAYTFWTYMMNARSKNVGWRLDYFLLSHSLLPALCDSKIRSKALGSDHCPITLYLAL
# UniProt Q9Y253: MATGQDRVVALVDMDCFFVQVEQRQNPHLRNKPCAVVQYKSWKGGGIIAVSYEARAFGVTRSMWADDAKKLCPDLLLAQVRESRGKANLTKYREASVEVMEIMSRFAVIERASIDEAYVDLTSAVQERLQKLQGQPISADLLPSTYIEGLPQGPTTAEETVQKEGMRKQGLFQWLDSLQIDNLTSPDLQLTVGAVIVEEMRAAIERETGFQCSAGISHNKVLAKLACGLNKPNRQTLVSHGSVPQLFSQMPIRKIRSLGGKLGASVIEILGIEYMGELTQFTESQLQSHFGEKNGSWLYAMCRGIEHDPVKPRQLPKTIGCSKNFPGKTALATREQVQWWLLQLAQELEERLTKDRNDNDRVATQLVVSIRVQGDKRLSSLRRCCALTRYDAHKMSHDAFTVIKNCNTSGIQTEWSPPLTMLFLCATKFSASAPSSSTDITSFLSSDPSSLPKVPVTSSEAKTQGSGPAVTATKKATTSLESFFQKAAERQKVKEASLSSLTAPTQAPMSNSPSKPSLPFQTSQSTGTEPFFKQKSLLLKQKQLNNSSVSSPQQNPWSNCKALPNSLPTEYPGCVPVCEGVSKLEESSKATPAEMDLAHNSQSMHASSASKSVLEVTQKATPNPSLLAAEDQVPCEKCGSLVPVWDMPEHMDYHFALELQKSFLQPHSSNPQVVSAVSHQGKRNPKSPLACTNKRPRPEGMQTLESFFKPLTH
# Inconclusive means that the source gave no clear call. Such entries were picked first, then a sample of the others. For some of these results: Where the call is inconclusive, the potency comes from a doubtful curve fit. For some of these results: “Side channel” marks fits to a control or component signal instead of the main read-out. Calls of active or inactive are those of the source. Unless noted, the call rests on the fitted dose curve; in most records, active means well fitted curve in the direction sought with a large enough effect; inconclusive means small, poorly fitted or top-dose-only effect, or another doubt; inactive means no such curve, though single readings can be large; an effect the other way counts as inactive or inconclusive.
# Columns and labels:
# [1] = Counterscreen for APE1 Inhibitors: Fluorescent Dye Displacement Assay (AID 2564);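 further: loss of thiazole orange fluorescence as the dye is displaced from duplex DNA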; further: potency means the concentration at half of the fitted maximal effect;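 on activity change, negative = inhibition: 0% = ThO with dsDNA and no compound and -100% = ThO without dsDNA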
# Outline: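 Thiazole Orange (250 nM) bound to 50 nM TAMRA-labelled dsDNA with tetrahydrofuran abasic site; displacement by DNA-binding compounds lowers fluorescence. Buffer 50 mM Tris-HCl pH 7.5, 50 mM NaCl, 2 mM MgCl2, 0.01% Tween-20; endpoint read at 480/540 nm.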
# [2] = Cell Viability - H-4-II-E (AID 543);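 further: cells exposed to compound for 40 hours; on the % scale 0 is the no-effect control and ±100 the full control effect; nearly all actives have a fitted effect of over 35% in size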
# Outline: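 Rat hepatoma H-4-II-E cells, 1500 per well, treated 40 h at 37 °C in complete medium. Cellular ATP read by CellTiter-Glo luminescence; AC50 from Hill fits of concentration-response.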
# [3] = Cell Viability - LYMP2-015 (AID 971);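 further: 0% = DMSO only and full effect = 92 µM tetraoctylammonium bromide; nearly all actives have a fitted effect of over 55% in size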
# Outline: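 LYMP2-015 human lymphoblastoid cells (2500/well) in complete medium, compound-treated 24 h at 37 C; viability read as cellular ATP by CellTiter-Glo luminescence after 30 min at room temperature. AC50 from Hill-equation fits of qHTS concentration-response data.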
# [4] = Cell Viability - LYMP2-021 (AID 974);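 further: compound exposure lasts 24 hours at 37 °C; on the % scale 0 is the no-effect control and ±100 the full control effect; nearly all actives have a fitted effect of over 55% in size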
# Outline: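 Human lymphoblastoid LYMP2-021 cells, 2500/well in complete medium, treated 24 hours at 37 C. Intracellular ATP by CellTiter-Glo luminescence (30 min, RT); AC50 from Hill fits of concentration-response.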
# [5] = qHTS Assay for Identification of Small Molecule Inducers of Hypoxia Response (AID 2120; active means well fitted curve in the direction sought with a large enough effect in the signal ratio, with a control signal flat, not every such curve was filed as active; inconclusive means small, poorly fitted or top-dose-only effect, or a change in a side signal; inactive means no such curve, though single readings can be large or run the other way; the % refers to the signal ratio; further: 0% is about no effect); conditions: hypoxia response reporter cells, beta-lactamase ratio readout; activation: at 104 µM (top of the series)
# Outline: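 HRE-bla ME-180 cells in Opti-MEM with 0.5% dialyzed FBS, pre-plated 4-5 h, then compound titration for 17 h at 37 degrees Celsius. CCF4 loaded 2.5 h at room temperature; 460/530 nm ratio gave %Activity and AC50 for induction.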
# [6] = molecular target: Peroxisome proliferator-activated receptor gamma (Homo sapiens) (UniProt P37231); experiment: qHTS assay for small molecule antagonists of peroxisome proliferator-activated receptor gamma signaling (AID 588537; active means well fitted inhibition curve with a large enough effect in the signal ratio, with a control signal flat, not every such curve was filed as active; inconclusive means small, poorly fitted or top-dose-only effect, or effect the other way, or a change in a side signal; the % refers to the signal ratio;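 further: reporter cells co-stimulated with 50 nM rosiglitazone agonist during compound treatment; % of control where 0% means no effect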); conditions: HEK293 PPARg-UAS-bla, beta-lactamase ratio, antagonist mode; activity, negative = inhibition: at 76.8 µM (top of the series)
# Outline: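 We seeded GeneBLAzer HEK293 reporter cells at 3000 per well, allowed 6-6.5 h attachment at 37 C, then co-treated with test compound titrations and 50 nM rosiglitazone overnight (16 h). Inhibition was quantified from 460/530 nm emission ratios.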
# [7] = molecular target: Thyroid hormone receptor beta (Homo sapiens) (UniProt P10828); experiment: qHTS assay for small molecule antagonists of thyroid hormone receptor beta signaling (AID 588547; active means well fitted inhibition curve with a large enough effect in the signal ratio, with a control signal flat, not every such curve was filed as active; inconclusive means small, poorly fitted or top-dose-only effect, or effect the other way, or a change in a side signal; the % refers to the signal ratio; further: potency means the concentration at half of the fitted maximal effect); conditions: TR-UAS-bla HEK293, beta-lactamase ratio, antagonist mode, 18 h
# Outline: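 TR-UAS-bla GripTite HEK293 cells in 2% charcoal/dextran FBS medium were preincubated 4 h at 37 C, given compound (0.59 nM to 92 uM) plus 0.4 nM T3 (final) for 18 h, then CCF4 for 2 h at RT; Hill fit gave IC50.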
# [8] = qHTS assay to identify small molecules that stimulate interleukin-8 (IL-8) secretion (AID 651758; active means well fitted activation curve with a large enough effect in the signal ratio; inconclusive means small, poorly fitted or top-dose-only effect, or effect the other way, or a change in a side signal; the % refers to the signal ratio; further: 0% is about no effect); conditions: HTRF ratio (665/615); activation: at 92.2 µM (top of the series)
# Outline: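 THP-1, 2000 cells/well; cpd 16 h, 37 C; add cryptate + XL665 anti-IL-8 Abs; RT 1-3 h; TR-FRET read.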
# [9] = Cell Viability - Mesenchymal (AID 546); conditions: mesenchymal cells viability, qHTS; activity change, negative = cytotoxicity: at 91.7 µM (top of the series);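 further: cells exposed to compound for 40 hours before reading; 0% = DMSO only and -100% = 100 µM tamoxifen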
# Outline: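 Normal human renal glomerulus-derived kidney mesenchymal cells, 1000 per well in complete medium, were treated with compounds for 40 hr at 37 °C. Viability was read as intracellular ATP by CellTiter-Glo luminescence; AC50 values came from Hill-equation fits of qHTS concentration-response data.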
# [10] = molecular target: Bile acid receptor (Homo sapiens) (UniProt Q96RI1); experiment: qHTS assay for small molecule antagonists of farnesoid X receptor signaling (AID 588526; calls by dose curve; further: on the % scale 0 is the no-effect control and ±100 the full control effect); conditions: HEK293T FXR-UAS-bla, beta-lactamase ratio, antagonist mode; activity change, negative = inhibition: at 76.7 µM (top of the series)
# Outline: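 Concentration-response titrations were fitted to the Hill equation for half-maximal inhibition and maximal response, with data normalised to 50 uM chenodeoxycholic acid and DMSO control wells. Cells: FXR-UAS-bla HEK293T, dialyzed FBS.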
# [11] = molecular target: Glucocorticoid receptor (Homo sapiens) (UniProt P04150); experiment: qHTS assay for small molecule agonists of glucocorticoid receptor signaling (AID 588532; active means well fitted curve in the direction sought with a large enough effect in the signal ratio, with a control signal flat; inconclusive means small, poorly fitted or top-dose-only effect, or a change in a side signal; inactive means no such curve, though single readings can be large or run the other way; the % refers to the signal ratio; further: potency means the concentration at half of the fitted maximal effect); conditions: HeLa MMTV-bla, beta-lactamase ratio, agonist, 18 h; activation: hits give high values, percent of dexamethasone control, DMSO zero
# Outline: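 Titration series, up to 92 uM, applied to GRE-bla HeLa cells for 18 h at 37 C. Detection by CCF4 FRET substrate after 2 h at RT.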
# [12] = molecular target: Vitamin D3 receptor (Homo sapiens) (UniProt P11473); experiment: qHTS assay for small molecule agonists of vitamin D receptor signaling (AID 588543; calls by dose curve;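 further: 0% = DMSO basal and 100% = reference agonist control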); conditions: HEK293T VDR-UAS-bla, beta-lactamase ratio, 16 h; activation: at 76.8 µM (top of the series)
# Outline: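 qHTS in agonist mode: compound titrations stimulate a VDR-driven β-lactamase reporter in HEK293T cells over 16 h at 37 °C. Response normalized to 50 nM 1α,25-dihydroxyvitamin D3 = 100%, DMSO = 0%; Hill fitting gives EC50 and maximal response.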
# [13] = molecular target: Retinoic acid receptor RXR-alpha (Homo sapiens) (UniProt P19793); experiment: qHTS assay for small molecule antagonists of retinoid X receptor alpha signaling (AID 588546; active means well fitted inhibition curve with a large enough effect in the signal ratio, with a control signal flat, not every such curve was filed as active; inconclusive means small, poorly fitted or top-dose-only effect, or effect the other way, or a change in a side signal; inactive means no such curve, though single readings can be large or run the other way; the % refers to the signal ratio;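 further: cells stimulated with 9-cis-retinoic acid as agonist; on the % scale 0 is the no-effect control and ±100 the full control effect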); conditions: HEK293T RXRa-UAS-bla, beta-lactamase ratio, antagonist mode
# Outline: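 Beta-lactamase reporter inhibition, read as CCF4 fluorescence ratio (ex 405, em 460/530 nm) after 2 h at RT. HEK293T UAS-bla cells, 2500/well, were stimulated with 9-cis-RA at 500 or 100 nM final alongside test compound for 18 h at 37 C.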
# [14] = qHTS assay for small molecule agonists of the antioxidant response element (ARE) signaling pathway (AID 651741; active means well fitted activation curve with a large enough effect in the signal ratio; inconclusive means small, poorly fitted or top-dose-only effect, or effect the other way, or a change in a side signal; the % refers to the signal ratio; further: % of control where 0% means no effect); conditions: HepG2 ARE-bla reporter, beta-lactamase FRET ratio, 16 h; activation: at 96 µM (top of the series) unless noted
# Outline: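 Compounds in DMSO are pinned onto HepG2 ARE-bla cells (2,000/well) that were preincubated 5 h; plates stay 16 h at 37 C, then beta-lactamase activity is detected with LiveBLAzer B/G substrate by fluorescence.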
# [15] = molecular target: Endonuclease 4 (Escherichia coli (strain K12)) (UniProt P0A6C1); experiment: Counterscreen for APE1 Inhibitors: qHTS Assay for Inhibitors of Endonuclease IV (AID 2565); further: potency means the concentration at half of the fitted maximal effect
# Outline: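 Concentration-response counterscreen run identically to the APE1 assay: 15 min room-temperature preincubation of 2 nM enzyme with compound, reaction started with 50 nM quenched abasic DNA, progress taken from kinetic fluorescence.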
# [16] = molecular target: DNA repair nuclease/redox regulator APEX1 (Homo sapiens) (UniProt P27695); experiment: qHTS FP-Based Assay for Inhibitors of the Human Apurinic/apyrimidinic Endonuclease 1 (APE1) (AID 2573); further: potency means the concentration at half of the fitted maximal effect; on activity, negative = inhibition: on the % scale 0 is the no-effect control and ±100 the full control effect
# [17] = molecular target: DNA polymerase eta (Homo sapiens) (UniProt Q9Y253); experiment: qHTS for Inhibitors of Polymerase Eta: Confirmatory Assay for Cherry-picked Compounds (AID 720502); conditions: Pol eta primer extension, TAMRA/BHQ fluorescence, 10 min; further: potency means the concentration at half of the fitted maximal effect
# Outline: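 Human Pol eta at 10 nM was preincubated with compound for 15 min at room temperature. Reaction was started with TAMRA/BHQ-2-labelled primer-template substrate (50 nM final), with fluorescence read at 0 and 10 min (ex 525, em 598 nm).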
# [18] = molecular target: DNA repair nuclease/redox regulator APEX1 (Homo sapiens) (UniProt P27695); experiment: Confirmation qHTS Assay for Inhibitors of the Human Apurinic/apyrimidinic Endonuclease 1 (APE1) (AID 2572); further: nearly all actives have a fitted effect of over 30% in size; further: potency means the concentration at half of the fitted maximal effect;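 on activity change, negative = inhibition: fluorescence gain from purified APE1 cutting a TAMRA/BHQ-2 THF abasic duplex; on the % scale 0 is the no-effect control and ±100 the full control effect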
# Outline: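 No-enzyme wells served as negative control, enzyme-only wells as full activity. APE1 with compound for 15 min RT; 50 nM final fluorophore/quencher abasic duplex started the reaction; read 3 minus read 1 at 525/598 nm.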
smiles,measurement,setting,value
CC1=NN(c2ccc(Cl)c(C(=O)O)c2)C(=O)/C1=C\c1ccc(-c2ccc(C(=O)O)cc2)o1,Potency,[1],"inconclusive: 14.1 µM [inhibitor, partial curve]"
NCCCCCCN,Potency,[2],inactive
same,Potency,[3],inactive
same,Potency,[4],inactive
same,Potency,[5],inactive
same,Potency,[6],inactive
same,Potency,[7],"inconclusive: 3.98 µM [side channel, falling, partial curve, poor fit]"
same,activation,[8],inconclusive: -10.7%
COc1ccc(N=C2NC(=O)/C(=C\c3ccco3)S2)cc1,Potency,[1],inactive
Cc1nc2ccc(Cl)cc2[nH]1,Potency,[9],inactive
same,Potency,[5],inactive
same,Potency,[10],inactive
same,Potency,[11],"inconclusive: 5.01 µM [side channel, falling, full curve, poor fit]"
same,Potency,[12],inactive
same,max response,[13],inactive: -12.1%
same,Potency,[14],inactive
same,activation,[8],inconclusive: -15.5%
Nc1ccc2c(c1Cl)C(=O)c1ccc(N)c(Cl)c1C2=O,Potency,[1],active: 6.31 µM
same,Potency,[15],"inconclusive: 7.94 µM [inhibitor, partial curve]"
same,Potency,[16],"inconclusive: 7.94 µM [inhibitor, partial curve, poor fit]"
same,Potency,[17],active: 42.6 µM
O=C(CSc1nc2cc(Cl)c(Cl)cc2[nH]1)c1ccc2c(c1)OCO2,Potency,[1],inactive
same,Potency,[18],"inconclusive: 1 µM [inhibitor, full curve, poor fit]"
Cc1ccc(/C=C2\SC(=S)N(c3cccnc3)C2=O)o1,Potency,[1],"inconclusive: 7.08 µM [inhibitor, single point]"
same,Potency,[18],inactive
same,Potency,[16],inactive
Cc1ccc(CN2C(=O)N/C(=C\c3ccc(-c4ccc(C(=O)O)cc4C)o3)C2=O)cc1,Potency,[1],"inconclusive: 15.8 µM [inhibitor, partial curve, poor fit]"
same,Potency,[18],"inconclusive: 0.562 µM [inhibitor, full curve, poor fit]"
same,Potency,[16],inactive
O=c1c2ccccc2nc(COc2ccccc2)n1/N=C/c1ccc(O)c(O)c1,Potency,[1],"inconclusive: 12.6 µM [inhibitor, partial curve]"
same,Potency,[18],"inconclusive: 15.8 µM [inhibitor, partial curve]"
COc1cccc(/C=N/Nc2ccc(S(=O)(=O)O)cc2)c1O,Potency,[1],"inconclusive: 17.8 µM [inhibitor, single point]"
same,Potency,[18],"inconclusive: 10 µM [inhibitor, partial curve, poor fit]"
CC1OC(OCC2OC(Oc3c(-c4ccc(O)cc4)oc4cc(O)cc(O)c4c3=O)C(O)C(O)C2O)C(O)C(O)C1O (centres undefined),Potency,[1],"inconclusive: 10 µM [inhibitor, partial curve]"
same,Potency,[18],active: 3.16 µM
NNC(=O)c1cc(O)c(O)c(O)c1,Potency,[1],inactive
same,Potency,[18],active: 3.98 µM
COCCn1c(C)cc(C(=O)CSc2n[nH]c(N)n2)c1C,Potency,[1],inactive
same,Potency,[18],inactive
COc1cc2c(ccc3cc(OC)c(OC)c(O)c32)cc1O,Potency,[1],"inconclusive: 11.2 µM [inhibitor, partial curve]"
same,Potency,[15],"inconclusive: 8.91 µM [inhibitor, partial curve]"
same,Potency,[16],"inconclusive: 12.6 µM [inhibitor, partial curve, poor fit]"
O=C1SC(SCc2ccccc2)=N/C1=C\c1ccco1,Potency,[1],"inconclusive: 28.2 µM [inhibitor, partial curve, poor fit]"
same,Potency,[18],"inconclusive: 22.4 µM [inhibitor, partial curve, poor fit]"
O=C(O)C[C@@H]1C(=O)O[C@@H]2C(COC(=O)c3cc(O)c(O)c(O)c3)O[C@@H](OC(=O)c3cc(O)c(O)c(O)c3)[C@@H](OC(=O)c3cc(O)c(O)c4c3[C@H]1[C@H](O)C(=O)O4)[C@H]2OC(=O)c1cc(O)c(O)c(O)c1 (some centres undefined),Potency,[1],"inconclusive: 0.398 µM [inhibitor, full curve]"
same,Potency,[15],"inconclusive: 0.0708 µM [inhibitor, full curve]"
same,Potency,[16],"inconclusive: 14.1 µM [inhibitor, partial curve, poor fit]"
COc1ccc(Cc2nnc(NC(=O)Cc3cccs3)s2)cc1OC,Potency,[1],"inconclusive: 12.6 µM [inhibitor, single point]"
same,Potency,[18],active: 2 µM

# A section of the results above, as a working copy:
smiles,measurement,setting,value
NCCCCCCN,Potency,[2],inactive
same,Potency,[3],inactive
same,Potency,[4],inactive
